Columns and labels:
[1] = general procedure: Fmoc solid-phase peptide synthesis; Fmoc-Arg-HMP resin; dicyclohexylcarbodiimide/hydroxybenzotriazole; settings: whole synthesis, scale of the general procedure 0.2-0.3 mmole
[2] = general procedure: Fmoc solid-phase peptide synthesis; preloaded Fmoc-Met-Rink amide resin; Rink amide resin for C-terminus amides; dicyclohexylcarbodiimide/hydroxybenzotriazole; settings: whole synthesis, scale of the general procedure 0.2-0.3 mmole

## Compound 2-Tyr-Phe-Lys-Ala-Cha-Cha-Leu-D-Ala-Arg-OH
[1]
  final purity (method not given): ≥99%

## DTPA-Lys-Pro-Lys-Pro-Gln-Gln-Phe-Phe-Gly-Leu-Met-NH2
[2]
  final purity (method not given): ≥99%

From patent US5736120 (dated 1998)
